Taken from: PubChem BioAssay AID1224830 (NIAID, 2016)
Assay: 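Regulators of TLR4 signalling towards TNF-alpha in macrophage-like cells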 (primary screen). System: human THP-1 monocytic leukaemia cells, TNF dual-luciferase reporter clone, PMA-differentiated to macrophage-like cells. Reagent: siRNA pool against human genes, 50 nM. Time to read-out: LPS for 4 h, given about 3 days after siRNA transfection. Challenge: bacterial LPS (TLR4 ligand), 10 ng/ml. Measurement: 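TNF firefly reporter luminescence divided by renilla, normalised to the plate median, then turned into a robust z-score for each replicate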. Scale: TNF reporter robust z-score: higher = stronger TNF reporter response to LPS. Call rule: 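Each well counts as active if its z-score is over 2.8 or under -1.5; controls are left without a call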.
In all, the deposit lists about 18,000 reagents; below is a part drawn at random. In the full data, about 2,900 (16%) got an active call. 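Calls are made per well; low scores hint the gene aids the LPS response, high scores that it dampens it.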 Repeated entries: four replicate wells of each siRNA pool. Reagent sequences are not shown.

no.	target	TNF reporter robust z-score	Call
1	MIPOL1 (GeneID 145282)	-0.73	inactive
2	MIPOL1 (GeneID 145282)	-0.49	inactive
3	MIPOL1 (GeneID 145282)	-0.32	inactive
4	MIPOL1 (GeneID 145282)	0.94	inactive
5	NRXN1 (GeneID 9378)	-0.35	inactive
6	NRXN1 (GeneID 9378)	0.39	inactive
7	NRXN1 (GeneID 9378)	1.09	inactive
8	NRXN1 (GeneID 9378)	1.95	inactive
9	UCHL3 (GeneID 7347)	0.35	inactive
10	UCHL3 (GeneID 7347)	-1.31	inactive
11	UCHL3 (GeneID 7347)	-0.08	inactive
12	UCHL3 (GeneID 7347)	0.4	inactive
13	HELZ (GeneID 9931)	-0.23	inactive
14	HELZ (GeneID 9931)	0.68	inactive
15	HELZ (GeneID 9931)	-0.3	inactive
16	HELZ (GeneID 9931)	0.84	inactive
17	ARHGEF16 (GeneID 27237)	0.65	inactive
18	ARHGEF16 (GeneID 27237)	1.86	inactive
19	ARHGEF16 (GeneID 27237)	1.07	inactive
20	ARHGEF16 (GeneID 27237)	1.85	inactive
21	CDC42EP3 (GeneID 10602)	-0.79	inactive
22	CDC42EP3 (GeneID 10602)	-0.87	inactive
23	CDC42EP3 (GeneID 10602)	-0.78	inactive
24	CDC42EP3 (GeneID 10602)	-0.76	inactive
25	MBD1 (GeneID 4152)	0.42	inactive
26	MBD1 (GeneID 4152)	2.83	active
27	MBD1 (GeneID 4152)	-0.61	inactive
28	MBD1 (GeneID 4152)	-0.06	inactive
29	LUC7L3 (GeneID 51747)	0.79	inactive
30	LUC7L3 (GeneID 51747)	-0.76	inactive
31	LUC7L3 (GeneID 51747)	-0.01	inactive
32	LUC7L3 (GeneID 51747)	0.09	inactive
33	SEMA3C (GeneID 10512)	-0.84	inactive
34	SEMA3C (GeneID 10512)	-0.73	inactive
35	SEMA3C (GeneID 10512)	0.11	inactive
36	SEMA3C (GeneID 10512)	0.13	inactive
37	PAFAH1B3 (GeneID 5050)	-1.87	active
38	PAFAH1B3 (GeneID 5050)	-1.46	inactive
39	PAFAH1B3 (GeneID 5050)	-0.77	inactive
40	PAFAH1B3 (GeneID 5050)	-0.72	inactive
41	UTF1 (GeneID 8433)	0.61	inactive
42	UTF1 (GeneID 8433)	1	inactive
43	UTF1 (GeneID 8433)	2.74	inactive
44	UTF1 (GeneID 8433)	0.52	inactive
45	SLC35F4 (GeneID 341880)	0.42	inactive
46	SLC35F4 (GeneID 341880)	1.66	inactive
47	SLC35F4 (GeneID 341880)	2.85	active
48	SLC35F4 (GeneID 341880)	0.26	inactive

Reprinted from above, 4 entries:
no.	target	TNF reporter robust z-score	Call
6	NRXN1 (GeneID 9378)	0.39	inactive
7	NRXN1 (GeneID 9378)	1.09	inactive
8	NRXN1 (GeneID 9378)	1.95	inactive
9	UCHL3 (GeneID 7347)	0.35	inactive

Next records follow:
no.	target	TNF reporter robust z-score	Call
49	CIMAP1C (GeneID 161753)	2.76	inactive
50	CIMAP1C (GeneID 161753)	1.63	inactive
51	CIMAP1C (GeneID 161753)	1.35	inactive
52	CIMAP1C (GeneID 161753)	1.08	inactive
53	VAV1 (GeneID 7409)	-0.26	inactive
54	VAV1 (GeneID 7409)	1.11	inactive
55	VAV1 (GeneID 7409)	0.4	inactive
56	VAV1 (GeneID 7409)	0.7	inactive
57	FUNDC1 (GeneID 139341)	1.84	inactive
58	FUNDC1 (GeneID 139341)	0.31	inactive
59	FUNDC1 (GeneID 139341)	0.53	inactive
60	FUNDC1 (GeneID 139341)	-1.99	active
61	LIMS1 (GeneID 3987)	-0.37	inactive
62	LIMS1 (GeneID 3987)	0.28	inactive
63	LIMS1 (GeneID 3987)	0.09	inactive
64	LIMS1 (GeneID 3987)	0.22	inactive
65	ATOH8 (GeneID 84913)	0.86	inactive
66	ATOH8 (GeneID 84913)	1.47	inactive
67	ATOH8 (GeneID 84913)	0.63	inactive
68	ATOH8 (GeneID 84913)	0.8	inactive
69	SYCP1 (GeneID 6847)	-0.02	inactive
70	SYCP1 (GeneID 6847)	-0.52	inactive
71	SYCP1 (GeneID 6847)	-0.23	inactive
72	SYCP1 (GeneID 6847)	0.86	inactive
73	KCNJ10 (GeneID 3766)	0.48	inactive
74	KCNJ10 (GeneID 3766)	0.92	inactive
75	KCNJ10 (GeneID 3766)	0.56	inactive
76	KCNJ10 (GeneID 3766)	0.8	inactive
